Laboratory results: PubChem BioAssay AID1224830 (NIAID, 2016)

Test: 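Regulators of TLR4 signalling towards TNF-alpha in macrophage-like cells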 (primary screen)
Cells: human THP-1 monocytic leukaemia cells, TNF dual-luciferase reporter clone, PMA-differentiated to macrophage-like cells
Reagent: siRNA pool against human genes, 50 nM
Time to read-out: LPS for 4 h, given about 3 days after siRNA transfection
Treatment: bacterial LPS (TLR4 ligand), 10 ng/ml
Measurement: 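Ratio of firefly to renilla light, scaled to the plate median and expressed as a robust z-score per replicate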
Direction: TNF reporter robust z-score: higher = stronger TNF reporter response to LPS
Active means: 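Each well counts as active if its z-score is over 2.8 or under -1.5; controls are left without a call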
Shown is one part, drawn at random, of about 18,000 reagents tested. About 2,900 of all reagents (16%) count as active. 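Calls are made per well; low scores hint the gene aids the LPS response, high scores that it dampens it.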 Unmarked entries are inactive. Repeated entries: four replicate wells of each siRNA pool.

TTC38 (tetratricopeptide repeat domain 38) — TNF reporter robust z-score: 0.18
TTC38 (tetratricopeptide repeat domain 38) — TNF reporter robust z-score: 0.31
TTC38 (tetratricopeptide repeat domain 38) — TNF reporter robust z-score: -0.47
TTC38 (tetratricopeptide repeat domain 38) — TNF reporter robust z-score: 0.95
DERL3 (derlin 3) — TNF reporter robust z-score: -0.8
DERL3 (derlin 3) — TNF reporter robust z-score: -0.56
DERL3 (derlin 3) — TNF reporter robust z-score: -1
DERL3 (derlin 3) — TNF reporter robust z-score: -0.63
DCP1A (decapping mRNA 1A) — TNF reporter robust z-score: 1.33
DCP1A (decapping mRNA 1A) — TNF reporter robust z-score: 2.66
DCP1A (decapping mRNA 1A) — TNF reporter robust z-score: 1.35
DCP1A (decapping mRNA 1A) — TNF reporter robust z-score: 1.34
NEUROD1 (neuronal differentiation 1) — TNF reporter robust z-score: 0.64
NEUROD1 (neuronal differentiation 1) — TNF reporter robust z-score: 0.6
NEUROD1 (neuronal differentiation 1) — TNF reporter robust z-score: 0.08
NEUROD1 (neuronal differentiation 1) — TNF reporter robust z-score: 0.81
EFCAB3 (EF-hand calcium binding domain 3) — TNF reporter robust z-score: 0.31
EFCAB3 (EF-hand calcium binding domain 3) — TNF reporter robust z-score: 0.81
EFCAB3 (EF-hand calcium binding domain 3) — TNF reporter robust z-score: -0.01
EFCAB3 (EF-hand calcium binding domain 3) — TNF reporter robust z-score: 0.93
